Experimental data reported in the supplement of paper PMC3334620.
The full ranking holds about 33,000 sequences; the median of “E-score (-0.5 to 0.5)” is about -8e-05, and the highest 2% start at about 0.23. Some of the results follow.

These sequences were tested against T1, Nrg2 (UniProt P38082) (assay: PBM E-score (8-mer binding enrichment) (E-score (-0.5 to 0.5)); higher = stronger / more preferred TF binding). Details: protein concentration: 100 nM; construct: GST-full length.
T1 sequence: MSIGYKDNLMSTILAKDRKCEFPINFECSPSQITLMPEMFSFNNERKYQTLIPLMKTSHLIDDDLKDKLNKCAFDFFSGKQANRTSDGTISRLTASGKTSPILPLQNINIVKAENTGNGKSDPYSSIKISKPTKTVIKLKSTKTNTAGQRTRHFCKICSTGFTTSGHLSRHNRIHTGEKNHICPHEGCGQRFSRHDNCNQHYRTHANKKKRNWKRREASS
Outline: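 For each ungapped eight-base word taken together with its reverse complement, the Universal PBM Analysis Suite assigned an E-score. Binding data came from GST-tagged yeast transcription factors, applied at about 100-200 nM, on universal all-10-mer Agilent arrays made double-stranded by primer extension. Fluorescent anti-GST marked bound protein, and scans were normalised with masliner.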

Sequence | PBM E-score
CTTGTCAA | -0.158
AATAATAT | 0.283
AGGAGAAG | -0.118
GACATCTA | 0.108
CACGTGTA | 0.0418
CCACATGG | -0.138
ATCCCCAT | 0.124
CCGTACGC | 0.0223
ATGTATGC | 0.0964
GCGGGAGC | -0.182
AAGCCGGT | 0.0724
CAAGGGAG | -0.0764
AGCTTCGC | -0.0781
TATTGTGA | 0.19
AAAGACTA | -0.174
CGTCCTAG | -0.237
CCCCATCA | 0.115
CAGCTATC | -0.0378
ATCTAATA | 0.14
CGTAGATC | 0.0509
ACTAGACA | 0.0308
AGAGGATA | -0.169

Sequence | PBM E-score
GTTCCGGA | 0.0583
CCTGCCAG | -0.0812
ACGTTCCG | -0.164
ATGATCCG | -0.139
AGTGGTAC | -0.115
AAAACGAC | 0.00163
ATGCAGCG | -0.0706
AGAATAGG | 0.196
GCTGTGCA | -0.0522
GGCAGGCC | -0.16
CCCCCCGC | -0.359
GGCCAGCA | 0.0667
CAAAGGTG | -0.0273
CCCAATCC | 0.0106
CCATCAGC | -0.0593
GGAGACAA | 0.178
CCAGGTTC | -0.211
AATCCTAT | 0.102
GCGACCCA | -0.0904
CTTTCCTC | -0.169
GGATATGA | 0.111
CGGAAGAG | -0.116

Quoted at random: six entries already listed, in no set order.
Sequence | PBM E-score
CTTTCCTC | -0.169
CCACATGG | -0.138
CCAGGTTC | -0.211
AGTGGTAC | -0.115
GTTCCGGA | 0.0583
CAAGGGAG | -0.0764

Remaining list, next part:

Sequence | PBM E-score
ACCTACGG | -0.376
AAAAATAC | 0.102
ACAAACTC | 0.124
CTCTCGAA | -0.0216
GTGAACTA | 0.0422
GAAGGAAC | -0.113
TGCCGCCA | 0.0203
AATCAGAT | 0.139
AAGTCGGA | 0.0274
AGCTCGAG | 0.0655
AACTAGAC | 0.0987
CGTATACG | -0.0658
GTCATATA | 0.0285
GAGCGCAC | 0.0755
ATCAGGCC | -0.0823
GAATTTCC | 0.252
CAGAGGCG | -0.0648
TAGTTACA | -0.0277
CAGTCTTC | -0.226
AAGTGAAT | 0.201
CTCGCCAG | -0.121
GTCCGGAC | 0.196

Sequence | PBM E-score
CACCCGGC | -0.289
AGAATGAC | 0.0324
ACCAATCG | 0.156
ACCTCAGG | 0.182
GTTCCAAC | -0.113
ACTCGCTG | 0.0939
CACTCGAA | 0.0782
GGCTATCA | -0.0415
AGGGAGGG | -0.00754
AGTAGTGA | -0.0673
AGAGGGAT | -0.179
CTCTACCA | 0.0251
GCGGACAA | 0.15
AGTATGCA | 0.143
AAGAGTTG | 0.0517
GACCTGTA | -0.113
CCAATAAA | 0.079
AGTAGCGA | 0.115
AGTCCGGA | -0.0347
GGAAGCTA | 0.00964
